Results are given in words; binding and its absence hold for the method and conditions named. Binding seen in cells or lysates may run through a third protein. A yes stands for co-enrichment or nearness to the bait. Other partners may have been found. Where a sequence is shown, tags or fusion partners need not be part of it.

Sequences of proteins named here, by UniProt entry; tags and fusion partners are left off. A change or cut given only in a name is not applied to a line headed by its entry. A line that says so, or that is headed by a name, gives the form on record, which may keep a tag or linker.
UniProt P40460: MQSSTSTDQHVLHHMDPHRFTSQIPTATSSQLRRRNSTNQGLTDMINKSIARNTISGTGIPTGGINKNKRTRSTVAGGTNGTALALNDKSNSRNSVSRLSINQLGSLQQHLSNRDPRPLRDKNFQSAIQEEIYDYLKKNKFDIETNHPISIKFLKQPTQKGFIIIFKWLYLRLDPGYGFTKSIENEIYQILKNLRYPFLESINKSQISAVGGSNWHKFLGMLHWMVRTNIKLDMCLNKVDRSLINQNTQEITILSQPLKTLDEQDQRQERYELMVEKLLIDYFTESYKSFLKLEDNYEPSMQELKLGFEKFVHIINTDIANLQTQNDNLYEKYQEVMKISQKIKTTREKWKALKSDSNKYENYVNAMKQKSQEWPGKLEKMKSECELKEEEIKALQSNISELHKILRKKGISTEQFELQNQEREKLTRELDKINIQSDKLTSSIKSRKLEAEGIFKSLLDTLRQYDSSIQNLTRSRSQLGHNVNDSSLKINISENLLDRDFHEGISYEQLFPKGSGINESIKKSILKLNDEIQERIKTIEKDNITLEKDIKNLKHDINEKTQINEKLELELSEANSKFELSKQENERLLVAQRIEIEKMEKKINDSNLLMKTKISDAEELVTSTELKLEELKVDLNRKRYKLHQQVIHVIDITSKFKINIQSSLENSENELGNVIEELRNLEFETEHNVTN
Ndc80-7D-3xGFP (P40460, form named): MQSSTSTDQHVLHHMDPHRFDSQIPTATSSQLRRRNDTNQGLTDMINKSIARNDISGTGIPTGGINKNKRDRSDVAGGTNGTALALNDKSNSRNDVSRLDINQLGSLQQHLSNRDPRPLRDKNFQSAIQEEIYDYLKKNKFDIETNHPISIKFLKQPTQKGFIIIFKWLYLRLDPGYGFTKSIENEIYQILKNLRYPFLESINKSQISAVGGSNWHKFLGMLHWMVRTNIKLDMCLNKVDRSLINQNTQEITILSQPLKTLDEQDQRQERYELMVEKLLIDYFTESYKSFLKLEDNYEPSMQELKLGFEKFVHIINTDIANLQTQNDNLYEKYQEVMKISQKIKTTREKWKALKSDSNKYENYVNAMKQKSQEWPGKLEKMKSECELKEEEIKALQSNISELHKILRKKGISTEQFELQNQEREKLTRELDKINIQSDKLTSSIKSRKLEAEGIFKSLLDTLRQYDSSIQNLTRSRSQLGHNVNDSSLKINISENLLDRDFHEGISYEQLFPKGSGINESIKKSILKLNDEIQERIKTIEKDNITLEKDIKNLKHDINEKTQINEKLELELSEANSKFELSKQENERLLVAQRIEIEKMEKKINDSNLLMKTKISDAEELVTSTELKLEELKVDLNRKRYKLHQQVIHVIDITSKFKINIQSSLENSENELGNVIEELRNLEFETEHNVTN

The target in the assay is T1, Dsn1-3xFLAG (S. cerevisiae (endogenous in budding yeast)) (UniProt P40568).
T1 sequence: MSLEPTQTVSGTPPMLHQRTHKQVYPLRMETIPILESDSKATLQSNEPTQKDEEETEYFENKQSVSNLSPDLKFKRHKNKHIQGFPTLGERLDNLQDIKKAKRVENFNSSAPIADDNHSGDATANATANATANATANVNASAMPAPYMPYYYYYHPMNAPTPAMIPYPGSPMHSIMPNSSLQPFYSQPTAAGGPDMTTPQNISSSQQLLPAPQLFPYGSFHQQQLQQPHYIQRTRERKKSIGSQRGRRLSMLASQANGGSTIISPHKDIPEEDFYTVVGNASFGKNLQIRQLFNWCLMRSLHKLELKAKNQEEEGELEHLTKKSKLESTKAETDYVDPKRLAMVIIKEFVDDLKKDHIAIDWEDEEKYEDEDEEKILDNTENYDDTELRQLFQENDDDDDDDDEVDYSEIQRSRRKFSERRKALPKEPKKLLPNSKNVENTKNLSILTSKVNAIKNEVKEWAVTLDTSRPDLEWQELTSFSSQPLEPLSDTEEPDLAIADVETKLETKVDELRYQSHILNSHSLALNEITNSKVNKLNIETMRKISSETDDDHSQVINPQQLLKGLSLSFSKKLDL
Put plainly: affinity purification with mass spectrometry.

As for “Ndc80-3xGFP (Ndc80-WT) (from UniProt P40460 1-691)”, the binding entry is “binds”.

As for “Ndc80-7D-3xGFP (from UniProt P40460 1-691)”, the binding entry is recorded as “binds”.

The values above are taken from article doi:10.1101/455873.
